Results deposited as PubChem BioAssay AID1508588 (Peter MacCallum Cancer Centre, 2020)

Aim: 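Which gene losses make BRAF-mutant melanoma cells more responsive to vemurafenib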 (primary screen)
System: human WM266.4 melanoma cells (BRAF V600 mutant)
Knock-down reagent: siRNA pool against human genes, 40 nM
Time to read-out: 96 h from transfection to read-out
Conditions: vemurafenib 300 nM (about IC25), added 48 h after transfection, for 48 h; comparison arm got DMSO vehicle only
Measured: 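Ratios to non-targeting siRNA for cell gain, counted as DAPI nuclei after minus before drug and averaged over two replicates, and for absorbance-read medium lactate per cell; both binned into fold-change classes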
Direction: cell gain with vemurafenib: higher = more cell gain than with non-targeting siRNA; lactate per cell with vemurafenib: higher = more lactate made per cell
Rule for the call: 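a knock-down counts as enhancing when its fold-change classes with vehicle and with vemurafenib, taken together, show a stronger drug effect on cell gain or lactate per cell; exact class pairs not stated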
Calls: active = enhances vemurafenib effect; inactive = no enhancement seen
In all, the deposit lists about 18,000 reagents; below is an unselected part. 790 of them (4.4%) count as active. 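Calls rest on a combination of fold-change classes in drug and vehicle arms, not all shown here.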 Reagent sequences are not shown.

| gene symbol | cell gain with vemurafenib | lactate per cell with vemurafenib | Call |
| --- | --- | --- | --- |
| MPLKIP | 0.33 | 1.58 | inactive |
| DHFR | 0.36 | 0.84 | inactive |
| TBC1D10B | 0.65 | 0.6 | inactive |
| RPAP2 | 0.07 | 1.28 | inactive |
| BSN | 0.96 | 0.94 | inactive |
| PTF1A | 0.4 | 1.68 | inactive |
| BTNL3 | 0.62 | 0.67 | inactive |
| NAGPA | 0.8 | 0.32 | inactive |
| CBX5 | 0.25 | 0.99 | inactive |
| AHCY | 0.14 | 1.92 | inactive |
| KRT34 | 0.55 | 1.02 | inactive |
| ARF5 | 0.82 | 1.06 | inactive |
| NCKAP5 | 0.22 | 0.79 | inactive |
| MCF2L | 0.16 | 1.11 | inactive |
| POLR3A | 0.61 | 0.48 | active |
| ZNF468 | 0.91 | 0.98 | inactive |
| ERC1 | 0.29 | 1.58 | inactive |
| ASS1 | 0.46 | 0.84 | inactive |
| RPTOR | 0.62 | 1 | inactive |
| ERGIC2 | 0.5 | 1.77 | inactive |
| FBXO25 | 0.93 | 0.72 | inactive |
| SHMT1 | 0.83 | 0.46 | active |
| RNF182 | 0.9 | 0.84 | inactive |
| GPATCH2 | 0.66 | 0.83 | inactive |
| EIF5A | 1.02 | 0.9 | inactive |
| PROKR2 | 0.81 | 0.9 | inactive |
| SLC16A8 | 0.25 | 1.79 | inactive |
| INA | 0.45 | 1.42 | inactive |
| SH3YL1 | 1.44 | 0.78 | inactive |
| SLC9A7 | 0.46 | 0.86 | inactive |
| GFRA1 | 0.59 | 0.64 | inactive |
| ZNF518B | 0.62 | 0.62 | inactive |
| COQ10A | 0.43 | 1.1 | inactive |
| SEC61A2 | 0.68 | 0.68 | inactive |

5 entries from above, sorted by “lactate per cell with vemurafenib”, high to low.
| gene symbol | cell gain with vemurafenib | lactate per cell with vemurafenib | Call |
| --- | --- | --- | --- |
| INA | 0.45 | 1.42 | inactive |
| SLC9A7 | 0.46 | 0.86 | inactive |
| SH3YL1 | 1.44 | 0.78 | inactive |
| GFRA1 | 0.59 | 0.64 | inactive |
| ZNF518B | 0.62 | 0.62 | inactive |
